Measurements taken from patent US20070014736A1, “Methods of delivering corticotroph-derived glycoprotein hormone” (priority 2005, published 2007).
These are yes or no findings as the source states them, for the method shown. Some results given as binding are weak or reduced against the parent protein; the word gives no strength.

Chains of the proteins cited; added tags and fusions are not shown. Lines headed by an entry give the natural chain unless they say otherwise; changes in a name come on top. Residues count along the entry.
UniProt P16473, residues 21-764: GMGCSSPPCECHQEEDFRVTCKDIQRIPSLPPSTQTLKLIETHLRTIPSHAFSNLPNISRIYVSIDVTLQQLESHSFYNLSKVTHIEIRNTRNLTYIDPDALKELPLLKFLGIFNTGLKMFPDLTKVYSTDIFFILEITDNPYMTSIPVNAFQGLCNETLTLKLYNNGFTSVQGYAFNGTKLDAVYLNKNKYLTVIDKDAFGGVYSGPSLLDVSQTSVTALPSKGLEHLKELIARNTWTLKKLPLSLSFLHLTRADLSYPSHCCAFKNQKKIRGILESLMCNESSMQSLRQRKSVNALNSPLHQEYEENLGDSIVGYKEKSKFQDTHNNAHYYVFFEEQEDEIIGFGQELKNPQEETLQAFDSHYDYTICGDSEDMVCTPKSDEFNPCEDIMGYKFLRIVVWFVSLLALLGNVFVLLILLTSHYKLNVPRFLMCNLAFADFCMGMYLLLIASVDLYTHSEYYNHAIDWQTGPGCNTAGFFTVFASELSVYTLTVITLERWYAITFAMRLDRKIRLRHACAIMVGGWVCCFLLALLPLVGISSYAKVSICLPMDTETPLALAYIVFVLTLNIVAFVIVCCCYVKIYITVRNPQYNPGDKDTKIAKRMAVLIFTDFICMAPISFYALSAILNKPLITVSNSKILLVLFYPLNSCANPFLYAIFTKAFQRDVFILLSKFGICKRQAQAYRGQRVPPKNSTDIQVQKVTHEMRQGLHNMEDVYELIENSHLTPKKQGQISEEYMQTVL
UniProt Q96T91: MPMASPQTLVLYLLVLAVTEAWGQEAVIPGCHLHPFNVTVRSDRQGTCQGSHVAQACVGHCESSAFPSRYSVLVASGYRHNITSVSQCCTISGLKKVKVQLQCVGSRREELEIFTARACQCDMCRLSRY

What was measured:
[1] = biological target: thyroid-stimulating hormone receptor (TSHR) expressed on BHK cells (BHK-TSHR cells) (UniProt P16473); test: radioligand binding to BHK-TSHR cell monolayers, 4 C
[2] = biological target: thyroid-stimulating hormone receptor (TSHR) expressed on BHK cells (BHK-TSHR cells) (UniProt P16473); test: summary of the radioligand binding and competition on BHK-TSHR cells
[3] = biological target: human thyroid-stimulating hormone receptor (human TSHR), on cells (human) (UniProt P16473); test: flow cytometry, CGH-biotin 10 ug/ml + streptavidin-PE on human PBMC subsets; receptor taken as TSH-R by the example's heading

- binding [1]: binds
- binding [2]: binds
- binding [3]: binds
Substance: recombinant human Corticotroph-derived Glycoprotein Hormone (rhCGH), heterodimer of GPHA2 and GPHB5 (from UniProt Q96T91 24-129; Q86YW7 25-130) (ligand)
